Results: the supplement of paper PMC10849652
Some of the results follow.

By UniProt entry, the sequences of proteins in these tests, tags left out. Where a name states a change or a piece, a line headed by the entry shows the natural chain unless it says otherwise.
UniProt Q13286: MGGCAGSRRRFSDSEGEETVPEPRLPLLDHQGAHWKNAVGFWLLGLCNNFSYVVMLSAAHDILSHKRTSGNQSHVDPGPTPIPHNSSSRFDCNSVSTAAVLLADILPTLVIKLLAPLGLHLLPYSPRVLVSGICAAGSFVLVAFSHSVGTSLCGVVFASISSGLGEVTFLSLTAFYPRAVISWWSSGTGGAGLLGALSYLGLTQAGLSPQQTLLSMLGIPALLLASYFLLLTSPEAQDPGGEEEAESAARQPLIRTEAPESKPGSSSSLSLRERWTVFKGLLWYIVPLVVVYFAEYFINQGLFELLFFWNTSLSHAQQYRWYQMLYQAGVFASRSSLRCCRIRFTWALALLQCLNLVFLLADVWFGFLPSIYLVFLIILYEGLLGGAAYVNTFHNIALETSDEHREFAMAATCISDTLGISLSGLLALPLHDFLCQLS
UniProt P0CG13, whole entry, looked up: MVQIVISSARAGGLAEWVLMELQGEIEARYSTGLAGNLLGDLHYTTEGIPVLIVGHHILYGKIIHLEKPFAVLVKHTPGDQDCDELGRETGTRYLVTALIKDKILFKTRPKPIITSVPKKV
UniProt Q9UBY8, whole entry, looked up: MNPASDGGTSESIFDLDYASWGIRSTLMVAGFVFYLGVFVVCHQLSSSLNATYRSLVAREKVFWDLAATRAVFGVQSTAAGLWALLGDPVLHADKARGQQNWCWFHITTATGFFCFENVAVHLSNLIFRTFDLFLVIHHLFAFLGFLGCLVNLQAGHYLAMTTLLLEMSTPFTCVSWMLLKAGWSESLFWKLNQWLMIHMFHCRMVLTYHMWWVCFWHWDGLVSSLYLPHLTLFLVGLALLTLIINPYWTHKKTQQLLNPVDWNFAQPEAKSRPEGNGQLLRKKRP
UniProt Q6FI81: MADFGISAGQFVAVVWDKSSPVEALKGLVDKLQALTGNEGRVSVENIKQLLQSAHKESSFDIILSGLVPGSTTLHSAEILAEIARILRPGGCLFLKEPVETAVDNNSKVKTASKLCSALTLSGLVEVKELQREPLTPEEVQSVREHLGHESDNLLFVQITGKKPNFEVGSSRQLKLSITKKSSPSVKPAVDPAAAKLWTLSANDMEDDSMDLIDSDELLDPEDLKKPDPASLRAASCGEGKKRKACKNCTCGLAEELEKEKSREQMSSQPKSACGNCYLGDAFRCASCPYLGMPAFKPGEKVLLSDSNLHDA
UniProt P56749: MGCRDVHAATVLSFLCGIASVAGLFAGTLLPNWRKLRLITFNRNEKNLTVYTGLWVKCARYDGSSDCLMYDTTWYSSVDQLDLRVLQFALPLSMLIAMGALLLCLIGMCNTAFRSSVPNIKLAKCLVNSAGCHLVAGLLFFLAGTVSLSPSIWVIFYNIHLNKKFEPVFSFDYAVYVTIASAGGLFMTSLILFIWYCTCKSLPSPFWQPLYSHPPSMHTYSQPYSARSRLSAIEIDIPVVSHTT
UniProt P26374: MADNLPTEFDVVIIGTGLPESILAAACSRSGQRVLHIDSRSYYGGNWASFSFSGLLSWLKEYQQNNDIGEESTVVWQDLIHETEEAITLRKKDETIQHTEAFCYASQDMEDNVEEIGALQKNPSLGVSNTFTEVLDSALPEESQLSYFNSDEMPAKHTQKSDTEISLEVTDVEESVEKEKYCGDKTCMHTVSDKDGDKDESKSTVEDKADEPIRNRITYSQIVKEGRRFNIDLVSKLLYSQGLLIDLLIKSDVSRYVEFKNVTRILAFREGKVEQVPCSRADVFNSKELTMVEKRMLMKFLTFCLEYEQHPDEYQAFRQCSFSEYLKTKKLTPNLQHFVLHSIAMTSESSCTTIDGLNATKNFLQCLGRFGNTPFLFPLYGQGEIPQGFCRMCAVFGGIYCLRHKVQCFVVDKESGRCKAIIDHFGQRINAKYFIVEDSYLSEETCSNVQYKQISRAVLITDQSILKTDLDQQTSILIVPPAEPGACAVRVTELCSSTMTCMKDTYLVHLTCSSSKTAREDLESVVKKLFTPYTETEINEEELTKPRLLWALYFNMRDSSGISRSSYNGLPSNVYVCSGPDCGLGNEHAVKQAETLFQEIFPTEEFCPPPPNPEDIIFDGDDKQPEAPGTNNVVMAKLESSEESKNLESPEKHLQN
UniProt Q9NX76: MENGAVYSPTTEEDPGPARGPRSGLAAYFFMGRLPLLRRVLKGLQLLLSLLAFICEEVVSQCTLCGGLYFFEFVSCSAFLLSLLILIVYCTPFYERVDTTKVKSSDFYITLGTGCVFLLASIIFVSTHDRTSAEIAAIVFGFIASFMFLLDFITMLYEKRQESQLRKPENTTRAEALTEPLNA
UniProt Q8N3C7: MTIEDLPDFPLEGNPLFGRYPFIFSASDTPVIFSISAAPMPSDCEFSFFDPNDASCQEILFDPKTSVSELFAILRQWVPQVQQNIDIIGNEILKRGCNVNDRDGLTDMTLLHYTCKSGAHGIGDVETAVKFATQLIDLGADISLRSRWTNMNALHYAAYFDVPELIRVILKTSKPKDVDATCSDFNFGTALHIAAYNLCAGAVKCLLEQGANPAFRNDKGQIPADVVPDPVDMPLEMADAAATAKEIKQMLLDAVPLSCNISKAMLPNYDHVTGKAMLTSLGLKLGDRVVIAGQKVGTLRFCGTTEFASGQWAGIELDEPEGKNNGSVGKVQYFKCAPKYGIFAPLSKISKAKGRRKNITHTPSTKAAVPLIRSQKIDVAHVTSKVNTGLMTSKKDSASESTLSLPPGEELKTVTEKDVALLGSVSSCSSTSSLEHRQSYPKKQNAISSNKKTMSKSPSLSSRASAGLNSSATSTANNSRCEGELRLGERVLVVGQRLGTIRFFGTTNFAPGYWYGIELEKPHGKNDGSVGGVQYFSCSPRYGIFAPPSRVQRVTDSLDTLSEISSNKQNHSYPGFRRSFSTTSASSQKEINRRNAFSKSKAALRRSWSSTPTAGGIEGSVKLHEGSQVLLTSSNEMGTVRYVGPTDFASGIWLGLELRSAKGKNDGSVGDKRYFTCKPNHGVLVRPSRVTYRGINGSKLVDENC
UniProt Q9BQT9: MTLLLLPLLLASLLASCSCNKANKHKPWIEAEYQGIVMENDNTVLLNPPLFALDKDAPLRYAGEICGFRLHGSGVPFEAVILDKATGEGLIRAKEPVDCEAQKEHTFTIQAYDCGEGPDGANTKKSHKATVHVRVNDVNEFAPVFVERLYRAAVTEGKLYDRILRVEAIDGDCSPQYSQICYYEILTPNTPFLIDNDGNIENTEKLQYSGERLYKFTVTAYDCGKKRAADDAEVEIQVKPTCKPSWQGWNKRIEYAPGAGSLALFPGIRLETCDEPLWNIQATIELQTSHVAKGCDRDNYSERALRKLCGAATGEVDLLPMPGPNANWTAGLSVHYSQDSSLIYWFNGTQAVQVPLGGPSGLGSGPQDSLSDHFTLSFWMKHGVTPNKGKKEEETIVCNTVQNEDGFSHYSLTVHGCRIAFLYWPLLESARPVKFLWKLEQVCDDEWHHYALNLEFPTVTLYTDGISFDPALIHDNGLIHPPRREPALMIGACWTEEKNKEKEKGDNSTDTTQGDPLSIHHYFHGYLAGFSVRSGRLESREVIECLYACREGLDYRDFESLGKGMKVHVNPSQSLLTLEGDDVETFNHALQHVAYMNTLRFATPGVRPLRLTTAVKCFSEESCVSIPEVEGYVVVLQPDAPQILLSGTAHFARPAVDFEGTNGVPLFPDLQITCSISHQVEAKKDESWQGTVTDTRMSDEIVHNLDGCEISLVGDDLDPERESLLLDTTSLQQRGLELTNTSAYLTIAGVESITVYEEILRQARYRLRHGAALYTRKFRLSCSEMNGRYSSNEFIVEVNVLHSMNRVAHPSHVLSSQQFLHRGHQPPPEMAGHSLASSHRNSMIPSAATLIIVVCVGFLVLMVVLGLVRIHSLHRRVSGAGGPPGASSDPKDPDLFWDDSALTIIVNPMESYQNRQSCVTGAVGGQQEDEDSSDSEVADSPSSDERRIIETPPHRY
UniProt O43529: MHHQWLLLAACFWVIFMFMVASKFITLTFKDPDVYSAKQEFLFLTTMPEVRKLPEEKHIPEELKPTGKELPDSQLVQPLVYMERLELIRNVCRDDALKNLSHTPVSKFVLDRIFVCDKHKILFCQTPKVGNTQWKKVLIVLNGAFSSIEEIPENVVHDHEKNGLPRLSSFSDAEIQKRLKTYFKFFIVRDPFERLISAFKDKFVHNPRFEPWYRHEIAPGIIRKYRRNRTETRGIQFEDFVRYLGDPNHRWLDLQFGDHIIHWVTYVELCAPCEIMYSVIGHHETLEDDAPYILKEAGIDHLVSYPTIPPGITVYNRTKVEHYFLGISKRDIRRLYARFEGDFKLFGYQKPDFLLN
UniProt P49759: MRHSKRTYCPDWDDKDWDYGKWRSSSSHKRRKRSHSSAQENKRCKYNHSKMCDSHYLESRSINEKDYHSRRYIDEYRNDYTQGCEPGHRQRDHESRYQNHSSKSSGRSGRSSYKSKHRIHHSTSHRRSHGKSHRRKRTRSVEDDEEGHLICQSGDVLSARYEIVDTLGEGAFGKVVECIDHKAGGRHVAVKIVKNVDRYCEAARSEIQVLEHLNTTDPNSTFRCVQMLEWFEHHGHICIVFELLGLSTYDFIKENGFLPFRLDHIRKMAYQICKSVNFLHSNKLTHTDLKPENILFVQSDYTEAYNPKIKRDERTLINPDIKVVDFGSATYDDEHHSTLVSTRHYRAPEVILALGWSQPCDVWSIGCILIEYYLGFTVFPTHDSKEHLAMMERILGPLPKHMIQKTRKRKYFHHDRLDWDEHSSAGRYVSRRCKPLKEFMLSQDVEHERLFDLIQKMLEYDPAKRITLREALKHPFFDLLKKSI
UniProt Q96EP1: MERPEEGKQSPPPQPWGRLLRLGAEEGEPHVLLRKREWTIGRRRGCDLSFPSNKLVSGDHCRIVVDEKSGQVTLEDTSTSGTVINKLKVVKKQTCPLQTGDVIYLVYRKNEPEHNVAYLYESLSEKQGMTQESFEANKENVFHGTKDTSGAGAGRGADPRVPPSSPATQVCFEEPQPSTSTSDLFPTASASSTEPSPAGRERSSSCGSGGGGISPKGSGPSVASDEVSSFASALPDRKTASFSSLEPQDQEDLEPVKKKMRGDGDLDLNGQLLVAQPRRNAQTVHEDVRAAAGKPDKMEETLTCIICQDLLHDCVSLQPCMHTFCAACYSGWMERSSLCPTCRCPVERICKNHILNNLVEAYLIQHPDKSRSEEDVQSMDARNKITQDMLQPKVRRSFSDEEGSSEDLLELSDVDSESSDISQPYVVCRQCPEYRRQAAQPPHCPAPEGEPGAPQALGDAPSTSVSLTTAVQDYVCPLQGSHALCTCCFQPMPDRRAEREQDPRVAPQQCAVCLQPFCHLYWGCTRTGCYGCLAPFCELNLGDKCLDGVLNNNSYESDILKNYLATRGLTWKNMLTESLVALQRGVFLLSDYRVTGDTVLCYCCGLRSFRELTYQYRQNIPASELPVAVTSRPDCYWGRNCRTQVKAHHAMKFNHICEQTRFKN

Legend:
Test in all cases: log2 fold change, soluble protein after heating vs DMSO (PISA); higher = thermal stabilisation; K562 lysate, 10 uM; active = over 0.2 and 3.5 SD of the protein, either way, in both replicates (recomputed)
[1] = compound: C1=CC=C(C=C1)[C@H](COC2=CC3=C(C=C2)NC(=O)N3)NC(=O)C4=CC=CN(C4=O)CC5=CC(=C(C=C5)F)F
Procedure, shortened: (§1)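 Quantification was by TMTpro 16plex LC-MS/MS with equalised channel sums, applied to the supernatant after 21,000xg for 90 min. Samples were crude K562 extract at 1 mg/mL protein in PBS pH 7.4 with 1 mM MgCl2, treated with 10 μM compound for 30 min, heated for 3 min across 48°C-58°C, pooled and brought to 0.5% NP-40 at 4°C. Values are log-two fold changes in thermal stability relative to solvent controls, from duplicates.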

[2] = compound: CC1=C(SC2=C1C(=N[C@H](C3=NN=C(N32)C)CC(=O)N)C4=CC=C(C=C4)Cl)C
Procedure, shortened: as §1

[3] = compound: Cc1sc2c(c1C)C(c1ccc(Cl)cc1)=N[C@@H](CC(=O)OC(C)(C)C)c1nnc(C)n1-2
Procedure, shortened: as §1

[4] = compound: c1ccc([C@@H]2C[C@H]2NC2CCNCC2)cc1
Procedure, shortened: as §1

[5] = compound: CC1=C2C(=CC=C1)N=C(N(C2=O)C3=CC=CC=C3C)CN4C=NC5=C(N=CN=C54)N
Procedure, shortened: as §1

Measured: log2 fold change

CLN3 (UniProt Q13286)
inactive: [1] 0.053 | [2] -0.092 | [3] -0.001

CHTF8 (UniProt P0CG13)
inactive: [1] -0.116 | [2] 0.14 | [3] 0.049 | [4] 0.033

CLN8 (UniProt Q9UBY8)
inactive: [1] -0.215 | [2] 0.052 | [3] -0.198 | [4] -0.073

CIAPIN1 (UniProt Q6FI81)
inactive: [1] 0.003 | [2] 0 | [5] -0.014 | [3] -0.026 | [4] -0.04

CLDN12 (UniProt P56749)
inactive: [1] 0.064 | [2] 0.047 | [3] -0.083 | [4] 0.036

CHML (UniProt P26374)
inactive: [1] 0.011 | [2] -0.027 | [5] 0.01 | [3] 0.016 | [4] -0.03

CMTM6 (UniProt Q9NX76)
inactive: [1] 0.003 | [2] -0.087 | [3] -0.07 | [4] -0.066

CLIP4 (UniProt Q8N3C7)
inactive: [1] -0.081 | [2] -0.095 | [5] -0.018 | [4] 0.001

CLSTN3 isoform 2 (UniProt Q9BQT9)
inactive: [3] -0.07

Fetched one by one from the list above (2):
CHML (UniProt P26374)
inactive: [1] 0.011 | [2] -0.027 | [5] 0.01 | [3] 0.016 | [4] -0.03

CLSTN3 isoform 2 (UniProt Q9BQT9)
inactive: [3] -0.07

Additional results follow:

CHST10 (UniProt O43529)
inactive: [5] 0.179 | [4] 0.045

CLK1 isoform 3 (UniProt P49759)
inactive: [1] 0.04 | [2] 0.035 | [4] -0.257

CHFR (UniProt Q96EP1)
inactive: [5] 0.027 | [3] -0.056
